Results deposited as PubChem BioAssay AID1259282 (Sanger Institute, 2017)

Aim: 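siRNA screen across the kinome seeking drug combinations lethal to colorectal cancer cells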 (primary screen)
Cells: DIFI human colorectal cancer cell line
Knock-down reagent: siRNA pool against human genes
Treatment: anchor drug at a mild dose (BYL719 1 µM, cetuximab 5 µg/ml, trametinib 10 nM) or DMSO vehicle; exposure time not given
Measured: 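Viability relative to non-targeting pool wells, replicate mean, in DMSO or low-dose BYL719, cetuximab or trametinib; robust z-score without drug; synergy score per drug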
Reading the numbers: robust z-score, knock-down alone: higher = more viable cells than typical knock-down; viability, knock-down alone: higher = more viable cells; synergy score with trametinib and synergy score with cetuximab and synergy score with BYL719: higher = stronger combined killing with drug
Rule for the call: 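a knock-down is called essential if its DMSO robust z-score is under -3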
Meaning of the calls: active = essential (knock-down alone, z below -3); inactive = not essential
The whole screen tested 794 reagents; shown is an unselected part. Over the whole deposit, 11 (1.4%) were called active. 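Calls flag knock-downs that lower viability without drug; drug synergy appears only in the synergy scores; exposure time not stated.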 Unmarked entries are inactive. No viability above 1 is reported: the scale is capped. Not stated in the record: the amount of reagent, the time to read-out.

| gene symbol | robust z-score, knock-down alone | viability, knock-down alone (fraction of control) | synergy score with trametinib | synergy score with cetuximab | synergy score with BYL719 |
| --- | --- | --- | --- | --- | --- |
| SMC1A (structural maintenance of chromosomes 1A) | -1.99 | 0.608 | 0.0422 | -0.0312 | -0.0524 |
| HSPB8 (heat shock protein family B (small) member 8) | -0.215 | 0.865 | 0.251 | -0.0145 | 0.0182 |
| PRKAG2 (protein kinase AMP-activated non-catalytic subunit gamma 2) | 0.715 | 1 | -0.191 | 0.0116 | -0.087 |
| BCR (BCR activator of RhoGEF and GTPase) | -0.363 | 0.843 | 0.2 | 0.0638 | -0.249 |
| BPTF (bromodomain PHD finger transcription factor) | -2.38 | 0.551 | 0.151 | 0.0631 | -0.066 |
| TAF1 (TATA-box binding protein associated factor 1) | 0.426 | 0.958 | -0.0251 | -0.137 | -0.158 |
| PRKACG (protein kinase cAMP-activated catalytic subunit gamma) | -0.11 | 0.88 | 0.249 | 0.134 | -0.0412 |
| NTRK2 (neurotrophic receptor tyrosine kinase 2) | 0.715 | 1 | 0.0326 | -0.00724 | -0.144 |
| RIPK2 (receptor interacting serine/threonine kinase 2) | 0.715 | 1 | 0.185 | 0.151 | 0.0612 |
| SHPK (sedoheptulokinase) | -1.34 | 0.702 | -0.121 | 0.0259 | -0.0153 |
| BUB1B (BUB1 mitotic checkpoint serine/threonine kinase B) | -0.59 | 0.81 | 0.121 | 0.108 | 0.13 |
| CDK14 (cyclin dependent kinase 14) | -0.755 | 0.787 | -0.0131 | -0.156 | -0.143 |
| DGKQ (diacylglycerol kinase theta) | -0.116 | 0.879 | 0.0216 | 0.0418 | -0.0596 |
| TAOK3 (TAO kinase 3) | -0.39 | 0.84 | 0.0123 | -0.0786 | -0.0369 |
| CKM (creatine kinase, M-type) | 0.715 | 1 | -0.0617 | -0.227 | -0.168 |
| MAPKAPK3 (MAPK activated protein kinase 3) | -0.591 | 0.81 | 0.154 | 0.165 | 0.0716 |
| CDK1 (cyclin dependent kinase 1) | 0.715 | 1 | -0.162 | -0.114 | -0.289 |
| KDR (kinase insert domain receptor) | -1.04 | 0.745 | 0.055 | 0.0258 | -0.151 |
| LATS1 (large tumor suppressor kinase 1) | -0.498 | 0.824 | 0.0193 | -0.0128 | -0.0823 |
| WNK3 (WNK lysine deficient protein kinase 3) | -0.0647 | 0.887 | 0.0616 | -0.0541 | -0.314 |
| PIP4K2A (phosphatidylinositol-5-phosphate 4-kinase type 2 alpha) | 0.715 | 1 | -0.157 | -0.173 | -0.362 |
| STK33 (serine/threonine kinase 33) | -0.436 | 0.833 | 0.0786 | 0.0224 | -0.0492 |
| PI4K2B (phosphatidylinositol 4-kinase type 2 beta) | -0.0478 | 0.889 | 0.136 | 0.0287 | -0.0229 |
| CSNK1A1L (casein kinase 1 alpha 1 like) | 0.715 | 1 | -0.358 | -0.394 | -0.362 |
| GUCY2D (guanylate cyclase 2D, retinal) | -1.29 | 0.709 | 0.13 | 0.109 | 0.0268 |
| BRAF (B-Raf proto-oncogene, serine/threonine kinase) | -0.327 | 0.849 | 0.202 | 0.11 | -0.00147 |
| SRGAP3 (SLIT-ROBO Rho GTPase activating protein 3) | 0.715 | 1 | -0.0782 | -0.0398 | -0.29 |
| PRKG2 (protein kinase cGMP-dependent 2) | 0.566 | 0.978 | 0.129 | 0.134 | -0.111 |
| TSSK6 (testis specific serine kinase 6) | -0.823 | 0.777 | 0.026 | -0.0298 | -0.0554 |
| FLT1 (fms related receptor tyrosine kinase 1) | 0.715 | 1 | -0.0203 | -0.0959 | -0.362 |
| TRIB1 (tribbles pseudokinase 1) | 0.715 | 1 | 0.0199 | -0.0144 | -0.15 |
| INSRR (insulin receptor related receptor) | 0.715 | 1 | 0.203 | -0.0451 | 0.076 |
| GRK1 (G protein-coupled receptor kinase 1) | 0.643 | 0.99 | -0.0161 | -0.0802 | -0.0562 |
| WNK2 (WNK lysine deficient protein kinase 2) | 0.715 | 1 | 0.00798 | -0.00604 | 0.00113 |
| DYRK2 (dual specificity tyrosine phosphorylation regulated kinase 2) | -2.58 | 0.521 | 0.085 | -0.0136 | -0.318 |
| MGA (MAX dimerization protein MGA) | -1.33 | 0.702 | 0.0407 | -0.026 | 0.0349 |
| CDK10 (cyclin dependent kinase 10) | -0.385 | 0.84 | 0.175 | 0.13 | 0.106 |
| PGK2 (phosphoglycerate kinase 2) | 0.715 | 1 | 0.126 | 0.00302 | -0.0831 |
| FGR (FGR proto-oncogene, Src family tyrosine kinase) | 0.302 | 0.94 | 0.0888 | 0.171 | 0.0305 |
| STK39 (serine/threonine kinase 39) | -2.41 | 0.547 | -0.066 | -0.0668 | -0.153 |
| NEK2 (NIMA related kinase 2) | 0.341 | 0.946 | 0.0669 | 0.0838 | 0.0579 |
| PIP4K2B (phosphatidylinositol-5-phosphate 4-kinase type 2 beta) | 0.393 | 0.953 | 0.203 | 0.0562 | -0.101 |
| ACVR1C (activin A receptor type 1C) | 0.715 | 1 | 0.05 | 0.122 | -0.132 |
| TEC (tec protein tyrosine kinase) | 0.319 | 0.943 | -0.0261 | -0.0543 | -0.212 |
| PRKCB (protein kinase C beta) | 0.12 | 0.914 | 0.13 | 0.0946 | 0.0419 |
| MAP2K3 (mitogen-activated protein kinase kinase 3) | -0.524 | 0.82 | 0.0191 | 0.0704 | 0.116 |
| HIPK1 (homeodomain interacting protein kinase 1) | 0.715 | 1 | -0.186 | -0.192 | -0.362 |
| RYK (receptor like tyrosine kinase) | 0.715 | 1 | 0.0264 | -0.0172 | -0.131 |
| CMPK1 (cytidine/uridine monophosphate kinase 1) | 0.314 | 0.942 | 0.0352 | -0.0504 | -0.116 |
| NME1 (NME/NM23 nucleoside diphosphate kinase 1) | 0.715 | 1 | -0.14 | -0.0373 | -0.129 |
| LYN (LYN proto-oncogene, Src family tyrosine kinase) | 0.693 | 0.997 | 0.173 | 0.116 | -0.142 |
| NME7 (NME/NM23 family member 7) | 0.715 | 1 | 0.126 | -0.031 | -0.27 |
| MAPK3 (mitogen-activated protein kinase 3) | -1.2 | 0.722 | 0.173 | 0.0579 | -0.12 |
| GRK3 (G protein-coupled receptor kinase 3) | 0.706 | 0.999 | -0.0877 | -0.0462 | -0.262 |
| ADCK2 (aarF domain containing kinase 2) | 0.715 | 1 | 0.0537 | -0.0112 | -0.0469 |
| TLK1 (tousled like kinase 1) | -1.17 | 0.726 | 0.0963 | 0.0982 | 0.16 |
| PNCK (pregnancy up-regulated nonubiquitous CaM kinase) | -0.458 | 0.83 | -0.0455 | -0.015 | -0.176 |
| DSTYK (dual serine/threonine and tyrosine protein kinase) | 0.715 | 1 | -0.22 | 0.0147 | -0.22 |
| MTOR (mechanistic target of rapamycin kinase) | 0.652 | 0.991 | -0.0937 | -0.081 | -0.232 |
| NUP107 (nucleoporin 107) | 0.195 | 0.925 | 0.0915 | 0.0479 | -0.137 |
| CDKL1 (cyclin dependent kinase like 1) | 0.642 | 0.989 | 0.0207 | -0.0853 | -0.16 |
| AXIN2 (axin 2) | 0.362 | 0.949 | 0.136 | -0.00145 | -0.103 |
| LMBR1 (limb development membrane protein 1) | 0.715 | 1 | 0.204 | 0.0926 | -0.115 |

A portion from the list above:
| gene symbol | robust z-score, knock-down alone | viability, knock-down alone (fraction of control) | synergy score with trametinib | synergy score with cetuximab | synergy score with BYL719 |
| --- | --- | --- | --- | --- | --- |
| PIP4K2A (phosphatidylinositol-5-phosphate 4-kinase type 2 alpha) | 0.715 | 1 | -0.157 | -0.173 | -0.362 |
| STK33 (serine/threonine kinase 33) | -0.436 | 0.833 | 0.0786 | 0.0224 | -0.0492 |
| PI4K2B (phosphatidylinositol 4-kinase type 2 beta) | -0.0478 | 0.889 | 0.136 | 0.0287 | -0.0229 |
| CSNK1A1L (casein kinase 1 alpha 1 like) | 0.715 | 1 | -0.358 | -0.394 | -0.362 |
| GUCY2D (guanylate cyclase 2D, retinal) | -1.29 | 0.709 | 0.13 | 0.109 | 0.0268 |
| BRAF (B-Raf proto-oncogene, serine/threonine kinase) | -0.327 | 0.849 | 0.202 | 0.11 | -0.00147 |
| SRGAP3 (SLIT-ROBO Rho GTPase activating protein 3) | 0.715 | 1 | -0.0782 | -0.0398 | -0.29 |
| PRKG2 (protein kinase cGMP-dependent 2) | 0.566 | 0.978 | 0.129 | 0.134 | -0.111 |
| TSSK6 (testis specific serine kinase 6) | -0.823 | 0.777 | 0.026 | -0.0298 | -0.0554 |
| FLT1 (fms related receptor tyrosine kinase 1) | 0.715 | 1 | -0.0203 | -0.0959 | -0.362 |
